Measured values reported in article PMC12040169 (PLOS Biology, 2025).
The list shows a part of the results.

test system: T1, CTL2-GFP (C. trachomatis L2/434/Bu, GFP-expressing); design: species or system HeLa; Intracellular C. trachomatis growth in HeLa cells, bulk GFP fluorescence relative to DMSO; conditions: bulk GFP, single well; 28.5 h, 10 µM; inhibitor
T1 construct: L2/434/Bu, GFP-expressing

SMILES | % of control remaining [%]
O=C(c1ccccc1F)N1C[C@H](c2ccsc2)[C@H]2CN(Cc3ccccc3)CC[C@H]21 [CBK285655] | 81.2551
CC(=O)Nc1ccc(CNC(=O)c2cccnc2O)cc1 [CBK304559] | 92.7322
CCc1ccc(C2=CC(c3cccc(C)c3)n3nnnc3N2)cc1 (stereo not drawn) [CBK268095] | 100.42
CN(C)CCCNC(=O)c1cc2c(n(-c3ccc(Cl)c(Cl)c3)c1=O)CC(C)(C)CC2=O [CBK293952] | 159.981
c1ncc(OC2CCN(CCN3CCOCC3)C2)nc1OCCN1CCOCC1 (stereo not drawn) [CBK084492] | 102.149
COCCn1nnnc1C(c1cc2cc(C)cc(C)c2[nH]c1=O)N1CCOCC1 (stereo not drawn) [CBK068815] | 114.328
COc1ccc(NC2=NN(c3ccccc3)C(=O)C2)cc1 [CBK288085] | 106.135
Cc1noc(CN2CCN(c3ccc4nnc(C(F)(F)F)n4n3)CC2)n1 [CBK305566] | 160.94
CCN(CC(O)COc1ccc2ccccc2c1)S(=O)(=O)O (stereo not drawn) [CBK261113K] | 119.718
O=C(Cn1cccn1)Nc1ccc2c(c1)CN(Cc1ccccc1)C2 [CBK281829] | 150.447
O=C(CC1NCCNC1=O)Nc1ccc2c(c1)OCCO2 (stereo not drawn) [CBK266837] | 131.466
COc1ccc(CCNC(=O)C(=O)Nc2ccc(C)c(C)c2)cc1 [CBK263222] | 105.364
CC(c1ccco1)N(C)Cc1c[nH]nc1-c1ccc(O)cc1 (stereo not drawn) [CBK283303] | 119.019
O=C(CCCN1C(=O)/C(=C/c2ccc3c(c2)OCO3)SC1=S)Nc1ccc([N+](=O)[O-])cc1 [CBK264623] | 97.0491
CC1=NN(c2ccc([N+](=O)[O-])cc2)C(=O)/C1=C/NCc1ccc(S(N)(=O)=O)cc1 [CBK262670] | 106.991
Nc1ncc(-c2cccc(Br)c2)nc1NCCCO [CBK063603] | 141.248
COc1cc(/C=N/c2ccc(/N=C/c3cc(Br)c(O)c(OC)c3)cc2)cc(Br)c1O [CBK261843] | 100
Cc1cccc(-c2csc3c(=O)[nH]c(N4CCC(C(=O)N5CCOCC5)CC4)nc23)c1 [CBK215644] | 177.158
Cc1ccc(CC(C#N)Sc2nc(CN3CCOCC3)nc3ccccc23)cc1 (stereo not drawn) [CBK298321] | 120.02
Cn1cc(CC2CCN(Cc3ccncc3)C2)cn1 (stereo not drawn) [CBK304796] | 114.967
Cc1cc2c(o1)c1cnn(CC(=O)N(C(C)C)C(C)C)c(=O)c1n2C [CBK282392] | 133.925

In another format: entries from further up

| SMILES | % of control remaining [%] |
| --- | --- |
| Cc1noc(CN2CCN(c3ccc4nnc(C(F)(F)F)n4n3)CC2)n1 [CBK305566] | 160.94 |
| CCN(CC(O)COc1ccc2ccccc2c1)S(=O)(=O)O (stereo not drawn) [CBK261113K] | 119.718 |
